The results in this text go back to article PMC12165809.

Amino acid sequences for entries named in this document (tags omitted).
UniProt Q15418: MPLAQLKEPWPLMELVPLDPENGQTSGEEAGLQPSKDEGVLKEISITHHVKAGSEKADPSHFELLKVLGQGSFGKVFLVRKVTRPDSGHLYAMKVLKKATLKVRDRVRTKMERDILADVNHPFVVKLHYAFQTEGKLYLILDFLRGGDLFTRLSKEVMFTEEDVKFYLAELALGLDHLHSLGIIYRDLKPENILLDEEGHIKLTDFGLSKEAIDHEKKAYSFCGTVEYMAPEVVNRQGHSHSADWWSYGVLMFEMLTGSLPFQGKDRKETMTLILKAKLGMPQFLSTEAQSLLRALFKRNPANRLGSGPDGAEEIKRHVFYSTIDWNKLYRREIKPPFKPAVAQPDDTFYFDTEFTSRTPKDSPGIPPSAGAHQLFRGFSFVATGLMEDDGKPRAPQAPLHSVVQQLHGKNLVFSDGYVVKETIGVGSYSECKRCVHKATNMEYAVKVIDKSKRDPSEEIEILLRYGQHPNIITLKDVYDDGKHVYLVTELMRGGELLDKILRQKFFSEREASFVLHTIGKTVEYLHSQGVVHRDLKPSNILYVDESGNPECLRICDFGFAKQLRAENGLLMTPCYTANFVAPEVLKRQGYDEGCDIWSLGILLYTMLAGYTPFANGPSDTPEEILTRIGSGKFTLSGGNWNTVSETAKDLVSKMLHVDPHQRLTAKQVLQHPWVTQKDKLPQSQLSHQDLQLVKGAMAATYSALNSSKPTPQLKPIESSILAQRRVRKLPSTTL

These are yes or no findings as the source states them, for the method shown. For some of these results: Binding seen in cells or lysates may run through a third protein. Some results given as binding are weak or reduced against the parent protein; the word gives no strength. For some of these results: Where a sequence is shown, tags or fusion partners need not be part of it.

The target in assay [1] is HA-Flag TRIM28 (UniProt Q13263). The assay is described as follows: co-IP; 293T cells transfected with both partners; lysed in NETN buffer (100 mM NaCl, 20 mM Tris-Cl pH 8.0, 1 mM EDTA, 0.5% NP-40); anti-Flag (M2) overnight at 4°C, Protein G magnetic beads; immunoblot. (In general: Immunoblotting shows a protein as a band on a membrane.)
In assay [2] the target is HA-Flag RSK1 (UniProt Q15418). The description is as above.
Assay [3] has as its target T1, GST-TRIM28 fragment 1 (F1) (UniProt Q13263).
T1 sequence: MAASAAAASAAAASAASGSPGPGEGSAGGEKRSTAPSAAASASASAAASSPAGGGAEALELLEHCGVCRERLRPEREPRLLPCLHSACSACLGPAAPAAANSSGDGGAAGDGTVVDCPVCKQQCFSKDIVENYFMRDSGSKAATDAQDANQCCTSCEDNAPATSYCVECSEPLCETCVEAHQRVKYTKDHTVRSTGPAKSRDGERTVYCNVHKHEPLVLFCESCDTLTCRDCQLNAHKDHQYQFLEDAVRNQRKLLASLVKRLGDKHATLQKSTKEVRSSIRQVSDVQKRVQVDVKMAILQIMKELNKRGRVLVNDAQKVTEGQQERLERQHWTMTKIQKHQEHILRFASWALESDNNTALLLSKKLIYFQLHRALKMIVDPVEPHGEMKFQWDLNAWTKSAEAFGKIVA
The assay can be described thus: pull-down; GST pull-down with recombinant RSK1 and GST-TRIM28 fragments (F1, F2) expressed in E. coli; immunoblot; both purified.

In assay [4] the target is T2, GST-TRIM28 fragment 2 (F2) (UniProt Q13263).
T2 sequence: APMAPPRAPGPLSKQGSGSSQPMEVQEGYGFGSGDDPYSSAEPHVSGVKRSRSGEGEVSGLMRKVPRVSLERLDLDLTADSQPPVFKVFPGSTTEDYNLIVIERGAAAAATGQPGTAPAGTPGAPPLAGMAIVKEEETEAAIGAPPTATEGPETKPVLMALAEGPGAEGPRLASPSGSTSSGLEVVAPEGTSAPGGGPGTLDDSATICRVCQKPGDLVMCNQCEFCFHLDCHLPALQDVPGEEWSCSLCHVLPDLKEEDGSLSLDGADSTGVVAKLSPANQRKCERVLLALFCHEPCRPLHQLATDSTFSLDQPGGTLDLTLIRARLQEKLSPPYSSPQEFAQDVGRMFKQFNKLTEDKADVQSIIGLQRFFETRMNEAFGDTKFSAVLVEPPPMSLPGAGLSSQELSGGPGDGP
The description is as above.

With “MYC-RSK1 (from UniProt Q15418 1-735) (enzyme)”, the binding entry in assay [1] is on record as “binds”.
Consider MYC-TRIM28 (from UniProt Q13263 1-835), for which the binding result in assay [2] is listed as “binds”.
Regarding “recombinant RSK1 (from UniProt Q15418 1-735) (enzyme)”, the binding entry in assay [3] and in assay [4] was “binds” throughout.
